For at least one compound, name, drawing or mass did not settle the structure.
target: Human lung tryptase; experiment: Ki determination, human lung tryptase (Tosyl-Gly-Pro-Arg-pNA substrate); type: biochemical; conditions: 50 mM Tris-HCl pH 8.0, 37° C., 1 nM tryptase, 320 μM GPR-pNA; read-out: Experimentally Determined Ki, Tryptase
Protocol: Protease inhibition was assayed according to published procedures with minor modifications using various proteases and specific chromogenic peptide p-nitroanilide substrates. Assays were performed in Costar ultra-low cluster 96-well microtiter plate (Costar Corning Corp., Cambridge Mass.). Each protease was incubated with various concentrations of the test compound for 15 min. at 37° C. or as otherwise indicated, in specific assay buffer, and the residual activity was then measured by addition of the substrate. p-Nitroaniline produced by the proteolysis was determined by measuring the change in absorbance at 405 nm on a SpectraMAX 340 plate reader (Molecular devices, Sunnyvale, Calif.).
1. The inhibition constant, Ki is calculated from individual data points using the equation for a tight-binding inhibitor (See Beith, "Proteinase Inhibitors-Proceedings of 2nd Int. Res. Conference", Fritz, et al. eds, New York, p.4463-4469 (1974)):
vi /vo [((Ki '+[I]+[E]o)^2 -4 [I]o
[E]o)^1/2 (Ki '+[I]o -[E]o)]/2[E]o
where Ki ' is apparent inhibition constant; vi and vo are the inhibited and uninhibited rates, respectively; [I]o and [E]o are the total concentrations of inhibitor and enzyme, respectively.
[note: [E]o is determined by active site titration of enzyme]
The Ki values are obtained by correcting Ki ' values for the effect of substrate concentration according to: [formula]
2. Other inhibition data (Ki >>[E]o), the Ki is calculated from using the equations for a competitive inhibitor: [formula]
Human lung tryptase purchased from Cortex Biochem (San Leandro, Calif.) was purified further on a Superdex 200 gel-filtration column. The active-site concentration of the enzyme was determined by spectrophotometric titration with 4-nitrophenyl 4'-guanidinobenzoate according to Schwartz, et al., J. Immunol., 114, 2304-2311 (1990). Tryptase activity was measured according to the procedures of Schwartz, et al., J. Biol. Chem., 261, 7372-7379 (1986) (See also, Schwartz, L. B., Methods In Enzymology, 244, 88 (1994)) with minor modifications, using Tosyl-Gly-Pro-Arg-p-nitroanilide ("GPR-pNA", Sigma Chemical Co., St. Louis, Mo., T-1637) as a chromogenic substrate. […] The amount of pNA produced by tryptase was determined by measuring the change in absorbance at 405 nm on a SpectraMAX 340 plate reader (Molecular devices, Sunnyvale, Calif.). The Km for the substrate was determined by Lineweaver-Burk analysis from initial velocities of substrate hydrolysis. […] The reaction was started by the addition of substrate GPR-pNA (40 μL-final concentration 320 μM), and the residual activity was measured after 15 min. of incubation. […]
The inhibition constant (Ki) of the test compounds against each proteolytic enzyme was determined according to Zitnik et al., Biochem. Biophys. […]

Row | Compound | Ki
1 | N=C(N)c1ccc(S(=O)(=O)NCc2cccc(OCCCCCOc3cccc(CNS(=O)(=O)c4ccc(C(=N)N)cc4)c3)c2)cc1 [Example 74, 1,5-Bis-{3-[(4-carbamimidoyl-benzenesulfonylamino)-methyl]-phenoxy}-pentane] | 440 nM
2 | N=C(N)c1cccc(S(=O)(=O)NCc2cccc(OCCCCCOc3cccc(CNS(=O)(=O)c4cccc(C(=N)N)c4)c3)c2)c1 [Example 75, 1,5-Bis-{3[-(3-carbamimidoyl-benzenesulfonylamino)-methyl]-phenoxy}-pentane] | 50 nM
3 | N#Cc1ccc(C(=O)NCc2ccc(OCCCOc3ccc(CNC(=O)c4ccc(C(=N)N)cc4)cc3)cc2)cc1 [Example 110, 4-Cyano-(3-{4-[(4-carbamimidoyl-benzoylamino)-methyl]-phenoxy}-propoxy)-benzylamide] | 1200 nM
4 | N#Cc1ccc(C(=O)NCc2ccc(COCc3ccc(CNC(=O)c4ccc(C(=N)N)cc4)cc3)cc2)cc1 [Example 111, 4-Amidino-{4-[(4-cyano-benzoylamino)-methyl]-benzyloxymethyl}-benzylamide] | 1100 nM

From patent publication US6221914A, “Sulfonamide bridging compounds that inhibit tryptase activity” (Array Biopharma Inc., priority 1998, dated 2001)
